The other results are listed elsewhere or left out. Residues, ends and D or L forms follow the SMILES beside them. *: point of attachment. Cbz = O=C(OCc1ccccc1)*
Experiments:
Test in all cases: log2 fold change, soluble protein after heating vs DMSO (PISA); higher = thermal stabilisation; K562 cells, 10 uM, 30 min; active = over 0.2 and 3.5 SD of the protein, either way, in both replicates (recomputed)
IRAK-1-4 Inhibitor I = compound: C1COCCN1CCN2C3=CC=CC=C3N=C2NC(=O)C4=CC(=CC=C4)[N+](=O)[O-] [IRAK-1-4 Inhibitor I]
How it was run: (§1)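 Aliquots of K562 cells (2×10^6 cells/mL) treated with 10 μM compound for 30 min were heated for 3 min over 48°C-58°C. After pooling and extraction in PBS with 0.5% NP-40 at 4°C, soluble protein from a 21,000xg, 90 min spin was quantified by TMTpro 16plex LC-MS/MS with channel sums equalised. Thermal stability is expressed against control samples, from duplicates, as a log2 fold change.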

Sequences of proteins named here, by UniProt entry; tags and fusion partners are left off. A change or cut given only in a name is not applied to a line headed by its entry.
UniProt O43826: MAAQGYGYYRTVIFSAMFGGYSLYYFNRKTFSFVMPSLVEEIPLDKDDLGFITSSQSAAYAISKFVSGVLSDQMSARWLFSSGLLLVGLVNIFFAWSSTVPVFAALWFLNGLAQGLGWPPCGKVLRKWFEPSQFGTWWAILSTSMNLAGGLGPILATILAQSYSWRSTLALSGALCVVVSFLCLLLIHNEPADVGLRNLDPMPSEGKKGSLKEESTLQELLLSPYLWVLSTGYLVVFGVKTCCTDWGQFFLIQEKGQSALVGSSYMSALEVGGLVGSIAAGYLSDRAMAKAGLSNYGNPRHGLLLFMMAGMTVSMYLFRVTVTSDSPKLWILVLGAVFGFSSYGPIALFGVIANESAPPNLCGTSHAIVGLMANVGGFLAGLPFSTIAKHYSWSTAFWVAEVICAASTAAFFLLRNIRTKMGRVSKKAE
UniProt Q9BQT8: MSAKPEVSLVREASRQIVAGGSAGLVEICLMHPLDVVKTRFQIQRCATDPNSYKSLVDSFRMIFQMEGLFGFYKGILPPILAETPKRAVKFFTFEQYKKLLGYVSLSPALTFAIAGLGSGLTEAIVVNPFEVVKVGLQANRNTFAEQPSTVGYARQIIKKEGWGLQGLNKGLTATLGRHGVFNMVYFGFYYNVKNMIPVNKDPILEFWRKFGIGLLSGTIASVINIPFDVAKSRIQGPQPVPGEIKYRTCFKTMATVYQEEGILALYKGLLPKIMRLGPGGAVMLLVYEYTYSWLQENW
UniProt Q8WUX1, whole entry, looked up: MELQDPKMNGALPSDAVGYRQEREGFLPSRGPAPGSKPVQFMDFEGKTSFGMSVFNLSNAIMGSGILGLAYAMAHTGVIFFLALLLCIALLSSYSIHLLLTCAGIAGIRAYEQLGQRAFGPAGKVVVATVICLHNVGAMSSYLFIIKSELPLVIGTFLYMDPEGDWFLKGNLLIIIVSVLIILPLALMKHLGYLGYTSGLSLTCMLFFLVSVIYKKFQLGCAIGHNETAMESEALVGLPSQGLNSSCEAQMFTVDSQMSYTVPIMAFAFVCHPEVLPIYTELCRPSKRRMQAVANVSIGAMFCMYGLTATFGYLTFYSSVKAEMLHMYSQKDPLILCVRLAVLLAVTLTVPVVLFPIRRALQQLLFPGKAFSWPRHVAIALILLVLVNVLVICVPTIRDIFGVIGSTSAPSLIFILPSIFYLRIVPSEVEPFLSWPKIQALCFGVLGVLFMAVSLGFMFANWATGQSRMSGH
UniProt P53007, whole entry, looked up: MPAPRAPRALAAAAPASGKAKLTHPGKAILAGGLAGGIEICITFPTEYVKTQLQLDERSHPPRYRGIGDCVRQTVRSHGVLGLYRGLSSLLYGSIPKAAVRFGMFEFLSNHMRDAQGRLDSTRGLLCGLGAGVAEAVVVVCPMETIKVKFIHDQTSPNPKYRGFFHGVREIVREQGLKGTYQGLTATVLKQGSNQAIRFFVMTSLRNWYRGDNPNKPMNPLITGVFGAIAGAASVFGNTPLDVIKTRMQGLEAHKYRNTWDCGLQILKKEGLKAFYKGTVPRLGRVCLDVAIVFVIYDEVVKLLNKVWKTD
UniProt Q8TBP6: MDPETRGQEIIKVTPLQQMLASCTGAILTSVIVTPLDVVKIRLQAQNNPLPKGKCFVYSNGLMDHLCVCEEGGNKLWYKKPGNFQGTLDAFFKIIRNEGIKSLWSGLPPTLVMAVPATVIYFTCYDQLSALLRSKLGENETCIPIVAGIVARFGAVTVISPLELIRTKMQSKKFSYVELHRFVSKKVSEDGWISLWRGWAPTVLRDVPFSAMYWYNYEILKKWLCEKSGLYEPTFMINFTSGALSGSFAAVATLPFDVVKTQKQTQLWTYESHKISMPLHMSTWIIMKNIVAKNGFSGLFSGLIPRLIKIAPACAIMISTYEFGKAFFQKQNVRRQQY
UniProt Q96AG3: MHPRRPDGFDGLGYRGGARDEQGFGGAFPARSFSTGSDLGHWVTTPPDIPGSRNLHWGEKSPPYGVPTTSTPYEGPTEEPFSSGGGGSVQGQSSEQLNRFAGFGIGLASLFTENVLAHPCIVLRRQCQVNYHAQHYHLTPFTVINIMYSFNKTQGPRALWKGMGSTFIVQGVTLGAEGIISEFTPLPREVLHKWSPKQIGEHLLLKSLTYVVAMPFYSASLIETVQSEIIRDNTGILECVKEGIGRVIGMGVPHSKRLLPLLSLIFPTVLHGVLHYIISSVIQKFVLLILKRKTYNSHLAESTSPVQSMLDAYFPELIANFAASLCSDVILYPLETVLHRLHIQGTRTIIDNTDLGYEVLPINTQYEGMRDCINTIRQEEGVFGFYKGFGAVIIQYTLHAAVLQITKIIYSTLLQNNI
UniProt Q92504: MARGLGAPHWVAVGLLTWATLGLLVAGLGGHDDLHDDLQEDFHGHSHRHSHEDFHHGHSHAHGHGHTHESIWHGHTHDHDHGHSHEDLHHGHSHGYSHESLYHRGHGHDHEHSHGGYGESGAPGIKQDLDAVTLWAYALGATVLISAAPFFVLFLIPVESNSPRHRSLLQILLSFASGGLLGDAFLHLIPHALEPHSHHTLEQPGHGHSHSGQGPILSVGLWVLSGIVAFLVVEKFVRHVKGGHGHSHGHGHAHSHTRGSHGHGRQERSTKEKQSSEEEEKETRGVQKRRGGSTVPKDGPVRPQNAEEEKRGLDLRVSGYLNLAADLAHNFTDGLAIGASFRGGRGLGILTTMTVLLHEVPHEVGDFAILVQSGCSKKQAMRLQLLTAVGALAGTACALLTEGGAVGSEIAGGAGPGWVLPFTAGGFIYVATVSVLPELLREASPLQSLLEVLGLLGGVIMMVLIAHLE
UniProt Q9NP59: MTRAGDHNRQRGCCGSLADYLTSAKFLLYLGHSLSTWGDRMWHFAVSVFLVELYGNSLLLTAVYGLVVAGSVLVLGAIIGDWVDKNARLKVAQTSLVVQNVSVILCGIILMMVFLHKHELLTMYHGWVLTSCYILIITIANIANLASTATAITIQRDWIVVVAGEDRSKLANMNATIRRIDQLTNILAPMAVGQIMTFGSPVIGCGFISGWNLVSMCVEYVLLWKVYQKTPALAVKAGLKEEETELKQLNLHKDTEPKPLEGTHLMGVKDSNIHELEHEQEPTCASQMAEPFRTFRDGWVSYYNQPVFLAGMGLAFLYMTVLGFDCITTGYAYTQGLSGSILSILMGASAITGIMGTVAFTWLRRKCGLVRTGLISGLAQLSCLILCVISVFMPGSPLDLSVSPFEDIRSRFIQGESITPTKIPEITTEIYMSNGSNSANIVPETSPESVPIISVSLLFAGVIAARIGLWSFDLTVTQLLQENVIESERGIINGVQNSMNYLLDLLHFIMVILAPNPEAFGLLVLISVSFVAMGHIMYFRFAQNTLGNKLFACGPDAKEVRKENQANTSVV
UniProt Q9H2H9: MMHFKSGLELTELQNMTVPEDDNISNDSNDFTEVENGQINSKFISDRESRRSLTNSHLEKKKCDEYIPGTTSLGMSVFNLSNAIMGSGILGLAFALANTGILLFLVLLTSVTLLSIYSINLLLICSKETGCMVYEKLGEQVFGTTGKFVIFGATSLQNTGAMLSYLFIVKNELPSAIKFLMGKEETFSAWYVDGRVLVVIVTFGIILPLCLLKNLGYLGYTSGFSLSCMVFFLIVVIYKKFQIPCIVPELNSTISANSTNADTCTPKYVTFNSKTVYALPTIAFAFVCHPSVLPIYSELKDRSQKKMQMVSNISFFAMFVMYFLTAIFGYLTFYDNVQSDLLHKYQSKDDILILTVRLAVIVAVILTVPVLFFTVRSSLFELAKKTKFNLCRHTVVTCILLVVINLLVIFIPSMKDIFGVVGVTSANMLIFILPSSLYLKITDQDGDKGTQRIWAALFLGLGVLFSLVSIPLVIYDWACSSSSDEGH
UniProt Q9H1U9: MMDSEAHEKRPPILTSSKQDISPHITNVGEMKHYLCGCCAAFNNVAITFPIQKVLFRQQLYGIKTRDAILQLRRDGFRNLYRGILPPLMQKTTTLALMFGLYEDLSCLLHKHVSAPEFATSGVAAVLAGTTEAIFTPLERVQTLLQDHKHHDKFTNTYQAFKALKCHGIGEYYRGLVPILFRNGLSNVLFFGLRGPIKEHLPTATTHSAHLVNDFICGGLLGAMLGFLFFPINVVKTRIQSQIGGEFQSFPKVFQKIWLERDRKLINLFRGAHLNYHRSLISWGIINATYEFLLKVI
UniProt P11166: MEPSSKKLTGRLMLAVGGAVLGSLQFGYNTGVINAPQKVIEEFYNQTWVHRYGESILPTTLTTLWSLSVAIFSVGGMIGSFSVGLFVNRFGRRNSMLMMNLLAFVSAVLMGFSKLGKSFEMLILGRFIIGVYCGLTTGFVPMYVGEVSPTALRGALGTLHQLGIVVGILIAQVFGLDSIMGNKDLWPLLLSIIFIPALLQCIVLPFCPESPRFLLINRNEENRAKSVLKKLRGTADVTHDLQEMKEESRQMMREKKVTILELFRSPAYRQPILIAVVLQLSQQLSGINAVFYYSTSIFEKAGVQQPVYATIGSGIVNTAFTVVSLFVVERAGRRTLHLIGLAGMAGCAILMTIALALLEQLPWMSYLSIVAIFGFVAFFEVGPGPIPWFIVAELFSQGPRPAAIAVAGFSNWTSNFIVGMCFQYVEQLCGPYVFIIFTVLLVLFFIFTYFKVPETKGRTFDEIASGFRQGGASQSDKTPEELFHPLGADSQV
UniProt Q8TB61: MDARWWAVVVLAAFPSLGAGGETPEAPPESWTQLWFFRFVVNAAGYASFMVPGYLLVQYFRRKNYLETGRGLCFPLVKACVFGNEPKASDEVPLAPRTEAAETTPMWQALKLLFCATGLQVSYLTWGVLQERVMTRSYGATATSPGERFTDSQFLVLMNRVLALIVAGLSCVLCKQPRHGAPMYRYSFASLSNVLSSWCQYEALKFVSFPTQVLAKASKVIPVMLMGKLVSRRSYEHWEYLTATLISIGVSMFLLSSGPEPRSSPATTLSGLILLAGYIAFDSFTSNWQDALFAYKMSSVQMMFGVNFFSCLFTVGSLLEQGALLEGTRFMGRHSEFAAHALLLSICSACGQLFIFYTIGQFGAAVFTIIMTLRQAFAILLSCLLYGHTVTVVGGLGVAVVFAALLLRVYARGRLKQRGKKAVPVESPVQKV
UniProt P11169: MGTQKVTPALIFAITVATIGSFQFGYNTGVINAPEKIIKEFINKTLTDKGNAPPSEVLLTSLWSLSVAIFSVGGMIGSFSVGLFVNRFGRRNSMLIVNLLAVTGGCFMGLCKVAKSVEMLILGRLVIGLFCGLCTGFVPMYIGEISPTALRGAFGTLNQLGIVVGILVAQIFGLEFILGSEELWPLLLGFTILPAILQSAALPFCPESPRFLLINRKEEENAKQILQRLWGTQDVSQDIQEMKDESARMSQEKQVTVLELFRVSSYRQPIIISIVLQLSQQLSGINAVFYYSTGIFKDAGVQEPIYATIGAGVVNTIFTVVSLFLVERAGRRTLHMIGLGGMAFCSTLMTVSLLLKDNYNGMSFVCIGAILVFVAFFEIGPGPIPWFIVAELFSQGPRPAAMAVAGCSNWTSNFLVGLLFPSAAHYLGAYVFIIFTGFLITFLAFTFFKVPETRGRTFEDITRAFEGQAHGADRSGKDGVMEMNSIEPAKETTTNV
UniProt Q9Y619: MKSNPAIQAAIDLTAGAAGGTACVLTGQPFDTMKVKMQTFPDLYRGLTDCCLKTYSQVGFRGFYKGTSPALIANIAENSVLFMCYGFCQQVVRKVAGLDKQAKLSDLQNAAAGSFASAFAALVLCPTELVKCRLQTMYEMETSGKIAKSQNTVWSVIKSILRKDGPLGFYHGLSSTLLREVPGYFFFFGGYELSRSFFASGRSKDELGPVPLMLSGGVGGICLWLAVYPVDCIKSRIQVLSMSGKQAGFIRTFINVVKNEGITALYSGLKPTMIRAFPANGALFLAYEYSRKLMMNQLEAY
UniProt Q9UPY5: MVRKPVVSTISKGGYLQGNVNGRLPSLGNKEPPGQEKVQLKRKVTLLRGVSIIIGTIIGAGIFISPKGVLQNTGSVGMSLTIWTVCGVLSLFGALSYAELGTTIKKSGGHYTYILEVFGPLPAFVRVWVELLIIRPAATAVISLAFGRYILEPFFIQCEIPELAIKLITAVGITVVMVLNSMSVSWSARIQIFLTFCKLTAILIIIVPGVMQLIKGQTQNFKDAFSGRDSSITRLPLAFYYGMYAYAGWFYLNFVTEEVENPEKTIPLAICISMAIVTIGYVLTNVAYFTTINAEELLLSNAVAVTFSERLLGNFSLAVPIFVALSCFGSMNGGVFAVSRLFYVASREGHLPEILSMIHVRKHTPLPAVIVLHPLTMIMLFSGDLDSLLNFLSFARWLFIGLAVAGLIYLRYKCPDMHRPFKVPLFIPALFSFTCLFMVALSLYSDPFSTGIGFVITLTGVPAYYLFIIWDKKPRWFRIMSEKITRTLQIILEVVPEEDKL

ibrutinib = compound: C=CC(=O)N1CCC[C@@H](n2nc(-c3ccc(Oc4ccccc4)cc3)c3c(N)ncnc32)C1 [ibrutinib]
How it was run: as §1

[1] = compound: CC(=O)c1cnc2ccc(-c3cc(Cl)c(O)c(Cl)c3)nc2c1N[C@H]1CC[C@H](CN(C)C)CC1
How it was run: as §1

ralimetinib = compound: CC(C)(C)Cn1c(N)nc2ccc(-c3[nH]c(C(C)(C)C)nc3-c3ccc(F)cc3)nc21 [ralimetinib]
How it was run: as §1

[2] = compound: CC(C)(O)CC(=O)NCCn1ccc2ncnc(Nc3ccc(Oc4cccc(C(F)(F)F)c4)c(Cl)c3)c21
How it was run: as §1

[3] = compound: CC(C)C1=C2N=C(C=C(N2N=C1)NCC3=CC=CC=C3)NCCCCCCN
How it was run: as §1

[4] = compound: CC(C)C[C@@H](C=O)NC(=O)[C@H](CC(C)C)NC(=O)[C@H](CC(C)C)NC(=O)OCc1ccccc1
How it was run: as §1

pinometostat = compound: CC(C)N(C[C@H]1O[C@@H](n2cnc3c(N)ncnc32)[C@H](O)[C@@H]1O)[C@H]1C[C@@H](CCc2nc3cc(C(C)(C)C)ccc3[nH]2)C1 [pinometostat]
How it was run: as §1

[5] = compound: CC1=C(C(CC(=O)N1)C2=CC=C(C=C2)C(F)(F)F)C(=O)NC3=C(C=C4C(=C3)C=NN4)F
How it was run: as §1

[6] = compound: CC1=C(C2=C(C=C1)C(=O)C3=CC=CC=C3N2CCCN)C
How it was run: as §1

Measured: log2 fold change

SLC35A3 isoform 2 (UniProt Q9Y2D2)
inactive: IRAK-1-4 Inhibitor I 0.014 | ibrutinib 0.071 | [1] -0.001 | ralimetinib 0.435 | [2] -0.043 | [3] -0.077 | [4] -0.277 | pinometostat -0.11 | [5] -0.047

SLC25A22 (UniProt Q9H936)
inactive: IRAK-1-4 Inhibitor I 0.022 | ibrutinib -0.002 | [1] 0.015 | ralimetinib -0.039 | [2] 0.002 | [3] 0.037 | [4] -0.028 | pinometostat -0.047 | [5] 0.015 | [6] -0.02

SLC29A1 isoform 2 (UniProt Q99808)
inactive: IRAK-1-4 Inhibitor I 0.023 | ibrutinib 0.054 | [1] -0.031 | ralimetinib -0.048 | [2] 0.023 | [3] 0.201 | [4] -0.173 | pinometostat -0.084 | [5] -0.013 | [6] 0.027

SLC37A4 isoform 2 (UniProt O43826)
inactive: IRAK-1-4 Inhibitor I 0.016 | ibrutinib -0.036 | [1] 0.03 | ralimetinib -0.085 | [2] -0.024 | [3] 0.136 | [4] 0.06 | pinometostat -0.009 | [5] -0.029 | [6] -0.009

SLC25A21 (UniProt Q9BQT8)
inactive: IRAK-1-4 Inhibitor I 0.043 | ibrutinib 0.005 | [1] 0.019 | ralimetinib -0.136 | [2] 0.022 | [3] 0.076 | [4] -0.011 | pinometostat -0.023 | [5] 0.014 | [6] -0.032

SLC38A5 (UniProt Q8WUX1)
inactive: IRAK-1-4 Inhibitor I -0.012 | ibrutinib 0.024 | [1] -0.014 | ralimetinib -0.028 | [2] -0.113 | [3] 0.102 | [4] -0.014 | pinometostat -0.014 | [5] 0.039 | [6] 0.068

SLC25A1 (UniProt P53007)
inactive: IRAK-1-4 Inhibitor I 0.047 | ibrutinib 0.005 | [1] 0.049 | ralimetinib 0.009 | [2] 0 | [3] 0.091 | [4] -0.006 | pinometostat -0.017 | [5] 0.032 | [6] -0.004

SLC25A40 (UniProt Q8TBP6)
inactive: IRAK-1-4 Inhibitor I 0.006 | ibrutinib -0.009 | [1] -0.003 | ralimetinib -0.049 | [2] -0.021 | [3] 0.05 | [4] 0.009 | pinometostat -0.014 | [5] -0.004 | [6] 0.056

SLC25A46 (UniProt Q96AG3)
inactive: IRAK-1-4 Inhibitor I 0.039 | ibrutinib -0.023 | [1] -0.034 | ralimetinib -0.027 | [2] -0.075 | [3] 0.028 | [4] -0.033 | pinometostat -0.062 | [5] 0.012 | [6] 0.009

SLC39A7 (UniProt Q92504)
inactive: IRAK-1-4 Inhibitor I -0.193 | ibrutinib 0.015 | [1] -0.015 | ralimetinib -0.018 | [2] -0.023 | [3] 0.002 | [4] -0.051 | pinometostat -0.164 | [5] -0.013 | [6] -0.01

SLC30A5 (UniProt Q8TAD4)
inactive: IRAK-1-4 Inhibitor I -0.029 | ibrutinib -0.08 | [1] -0.043 | ralimetinib -0.046 | [2] 0.013 | [3] 0.075 | [4] 0.016 | pinometostat 0.005 | [5] -0.033 | [6] 0.064

SLC40A1 (UniProt Q9NP59)
inactive: IRAK-1-4 Inhibitor I 0.025 | ibrutinib 0.187 | [1] -0.174 | ralimetinib -0.24 | [2] -0.101 | [3] 0.087 | [4] 0.24 | pinometostat 0.006 | [5] -0.173 | [6] 0.054

SLC38A1 (UniProt Q9H2H9)
inactive: IRAK-1-4 Inhibitor I 0.004 | ibrutinib -0.026 | [1] 0.022 | ralimetinib -0.053 | [2] -0.017 | [3] 0.08 | [4] -0.038 | pinometostat -0.059 | [5] 0.002 | [6] 0.009

SLC45A4 isoform 3 (UniProt Q5BKX6)
inactive: IRAK-1-4 Inhibitor I 0.058 | ibrutinib 0.041 | [1] 0.006 | ralimetinib 0.097 | [2] 0.015 | [3] -0.026 | [4] 0.285 | pinometostat -0.107 | [5] -0.017 | [6] 0.049

SLC30A1 (UniProt Q9Y6M5)
inactive: IRAK-1-4 Inhibitor I -0.012 | ibrutinib 0.054 | [1] 0.01 | ralimetinib -0.022 | [2] 0.022 | [3] 0.17 | [4] -0.059 | pinometostat -0.087 | [5] 0.006 | [6] 0.013

SLC25A16 (UniProt P16260)
inactive: IRAK-1-4 Inhibitor I -0.037 | ibrutinib 0.175 | [1] -0.031 | ralimetinib 0.064 | [2] -0.014 | [3] 0.045 | [4] 0.086 | pinometostat 0.065 | [5] 0.015 | [6] 0.093

SLC25A51 (UniProt Q9H1U9)
inactive: IRAK-1-4 Inhibitor I 0.078 | ibrutinib 0.014 | [1] 0.011 | ralimetinib -0.035 | [2] 0.037 | [3] 0.095 | [4] 0.041 | pinometostat -0.121 | [5] -0.006 | [6] -0.012

SLC33A1 (UniProt O00400)
inactive: IRAK-1-4 Inhibitor I 0.006 | ibrutinib 0.023 | [1] 0.006 | ralimetinib 0.044 | [2] -0.025 | [3] -0.057 | [4] -0.088 | pinometostat -0.057 | [5] -0.03 | [6] 0.013

2 records drawn at random from the list so far, as already listed:
SLC25A40 (UniProt Q8TBP6)
inactive: IRAK-1-4 Inhibitor I 0.006 | ibrutinib -0.009 | [1] -0.003 | ralimetinib -0.049 | [2] -0.021 | [3] 0.05 | [4] 0.009 | pinometostat -0.014 | [5] -0.004 | [6] 0.056

SLC40A1 (UniProt Q9NP59)
inactive: IRAK-1-4 Inhibitor I 0.025 | ibrutinib 0.187 | [1] -0.174 | ralimetinib -0.24 | [2] -0.101 | [3] 0.087 | [4] 0.24 | pinometostat 0.006 | [5] -0.173 | [6] 0.054

Next records follow:

SLC2A1 (UniProt P11166)
inactive: IRAK-1-4 Inhibitor I 0.031 | ibrutinib 0.014 | [1] -0.053 | ralimetinib -0.06 | [2] 0.008 | [3] 0.06 | [4] 0.007 | pinometostat -0.024 | [5] -0.013 | [6] 0.007

SLC25A13 isoform 2 (UniProt Q9UJS0)
inactive: IRAK-1-4 Inhibitor I 0.032 | ibrutinib 0.009 | [1] -0.012 | ralimetinib -0.056 | [2] 0.004 | [3] 0.034 | [4] -0.003 | pinometostat -0.027 | [5] -0.009 | [6] -0.014

SLC35B2 (UniProt Q8TB61)
inactive: IRAK-1-4 Inhibitor I 0.005 | ibrutinib 0.008 | [1] -0.005 | ralimetinib 0.008 | [2] -0.02 | [3] -0.024 | [4] -0.055 | pinometostat 0.023 | [5] 0.045 | [6] 0.027

SLC2A3 (UniProt P11169)
inactive: IRAK-1-4 Inhibitor I -0.012 | ibrutinib 0.034 | [1] -0.04 | ralimetinib -0.092 | [2] -0.023 | [3] 0.113 | [4] -0.015 | pinometostat -0.028 | [5] 0.027 | [6] -0.011

SLC25A15 (UniProt Q9Y619)
inactive: IRAK-1-4 Inhibitor I 0.018 | ibrutinib 0.018 | [1] 0.009 | ralimetinib -0.001 | [2] 0.04 | [3] 0.083 | [4] 0.011 | pinometostat -0.011 | [5] -0.003 | [6] 0.033

SLC43A3 isoform 2 (UniProt Q8NBI5)
inactive: IRAK-1-4 Inhibitor I -0.014 | ibrutinib 0.007 | [1] -0.056 | ralimetinib -0.108 | [2] 0.006 | [3] 0.183 | [4] -0.041 | pinometostat -0.023 | [5] 0.011 | [6] 0.015

SLC4A2 (UniProt P04920)
inactive: IRAK-1-4 Inhibitor I 0.022 | ibrutinib -0.024 | [1] -0.015 | ralimetinib 0.003 | [2] -0.07 | [3] -0.165 | [4] 0.143 | pinometostat 0.054 | [6] 0.01

SLC4A7 isoform 7 (UniProt Q9Y6M7)
inactive: IRAK-1-4 Inhibitor I -0.042 | ibrutinib 0.151 | [1] -0.142 | ralimetinib 0.034 | [2] -0.009 | [3] 0.055 | [4] 0.038 | pinometostat 0.158 | [5] -0.032 | [6] 0.175

SLC25A32 (UniProt Q9H2D1)
inactive: IRAK-1-4 Inhibitor I -0.006 | ibrutinib 0.02 | [1] 0.005 | ralimetinib -0.073 | [2] 0.072 | [3] 0.03 | [4] -0.049 | pinometostat -0.035 | [5] -0.021 | [6] 0.014

SLC25A11 (UniProt Q02978)
inactive: IRAK-1-4 Inhibitor I 0.019 | ibrutinib 0.032 | [1] 0.029 | ralimetinib -0.053 | [2] 0.027 | [3] 0.05 | [4] -0.027 | pinometostat -0.006 | [5] -0.011 | [6] -0.016

SLC7A11 (UniProt Q9UPY5)
inactive: IRAK-1-4 Inhibitor I 0.019 | ibrutinib 0.015 | [1] -0.029 | ralimetinib -0.11 | [2] -0.151 | [3] 0.182 | [4] 0.044 | pinometostat -0.027 | [5] -0.025 | [6] 0.049

SLC12A6 isoform 2 (UniProt Q9UHW9)
inactive: IRAK-1-4 Inhibitor I 0 | ibrutinib 0.108 | [1] -0.089 | ralimetinib 0.004 | [2] -0.018 | [3] -0.017 | [4] -0.02 | pinometostat -0.001 | [5] -0.018 | [6] 0.039

Reference: the supplement of paper PMC10849652
